# According to patent US11000037B2, “Benzylamide compound, method for producing the same, and miticide” (OAT AGRIO CO., LTD., priority 2016, dated 2021):
# Some results were stated once for a whole list of compounds, not compound by compound.
# System: two-spotted spider mites
# Assay: Ovicidal test on two-spotted spider mites (Test Example 2)
# Format: in vivo
# Settings: at 500 ppm (method: 200 ppm formulation, 2 ml sprayed); 6 days after the spraying
row,Structure (SMILES),ovicidal rate of the two-spotted spider mites (mortality) [%]
1,Cc1cc(Br)c(N(C)C(=O)Cc2ccc(SC(F)(F)F)cc2)cc1SCC(F)(F)F [Compound 1A-73],≥ 50
2,Cc1cc(F)c(N(C)C(=O)Cc2ccc(-c3cccc(Cl)c3)cc2)cc1SCC(F)(F)F [Compound 1B-33],≥ 50
3,Cc1cc(F)c(N(C)C(=O)Cc2cccc(-c3ccc(Cl)c(Cl)c3)c2)cc1SCC(F)(F)F [Compound 1B-74],≥ 50
4,Cc1cc(F)c(N(C)C(=O)Cc2cccc(-c3ccc(-c4ccccc4)cc3)c2)cc1SCC(F)(F)F [Compound 1B-97],≥ 50
5,Cc1cc(F)c(NC(=O)Cc2ccc(C(F)(F)F)cc2)cc1SCC(F)(F)F [Compound 1A-12],≥ 50
6,Cc1cc(F)c(NC(=O)Cc2ccc(OC(F)F)cc2)cc1SCC(F)(F)F [Compound 1B-79],≥ 50
7,Cc1cc(F)c(N(C)C(=O)Cc2cccc(-c3ccc(C(F)(F)F)cc3)c2)cc1SCC(F)(F)F [Compound 1B-64],≥ 50
8,Cc1cc(F)c(N(C)C(=O)Cc2ccc(-c3ccc(Cl)c(Cl)c3Cl)cc2)cc1SCC(F)(F)F [Compound 1B-32],≥ 50
9,Cc1cc(Cl)c(N(C)C(=O)Cc2ccc(C(F)(F)F)cc2)cc1SCC(F)(F)F [Compound 1A-82],≥ 50
10,CCc1ccc(CC(=O)Nc2cc(SCC(F)(F)F)c(C)cc2F)cc1 [Compound 1A-70],≥ 50
11,Cc1cc(F)c(NC(=S)Cc2ccc(-c3cccc(OC(F)(F)F)c3)cc2)cc1SCC(F)(F)F [Compound 1B-38],≥ 50
12,Cc1cc(F)c(N(C)C(=O)Cc2ccc(SC(F)(F)F)cc2)cc1SCC(F)(F)F [Compound 1A-49],≥ 50
13,Cc1cc(F)c(NC(=O)Cc2cccc(-c3cc(Cl)ccc3Cl)c2)cc1SCC(F)(F)F [Compound 1B-68],≥ 50
14,CCSc1ccc(CC(=O)N(C)c2cc(SCC(F)(F)F)c(C)cc2F)cc1 [Compound 1B-7],≥ 50
15,"CCCSc1ccc(CC(=O)Nc2cc(SCC(F)(F)F)c(C)cc2F)cc1 [Compound 1B-2, N-(2-fluoro-4-methyl-5-((2,2,2-trifluoroethyl)thio)phenyl)-2-(4-(propylthio)phenyl)acetamide]",≥ 50
16,Cc1cc(Br)c(NC(=O)Cc2ccc(C(F)(F)F)cc2)cc1SCC(F)(F)F [Compound 1A-53],≥ 50
17,Cc1cc(F)c(NC(=O)Cc2ccc(-c3cccc(Cl)c3Cl)cc2)cc1SCC(F)(F)F [Compound 1B-18],≥ 50
18,CCN(C(=O)Cc1ccc(OC(F)(F)F)cc1)c1cc(SCC(F)(F)F)c(C)cc1F [Compound 1A-48],≥ 50
19,Cc1cc(F)c(N(C)C(=O)Cc2ccccc2-c2ccccc2)cc1SCC(F)(F)F [Compound 1B-48],≥ 50
20,Cc1cc(F)c(N(C)C(=O)C(C)c2ccc(Cl)cc2)cc1SCC(F)(F)F (racemic) [Compound 1A-86],≥ 50

row,Structure (SMILES),ovicidal rate of the two-spotted spider mites (mortality) [%]
1,Cc1cc(F)c(N(C)C(=O)Cc2ccc(-c3ccccc3)cc2)cc1SCC(F)(F)F [Compound 1A-95],≥ 50
2,Cc1cc(F)c(N(C)C(=S)Cc2ccc(-c3ccccc3)cc2)cc1SCC(F)(F)F [Compound 1B-37],≥ 50
3,Cc1cc(F)c(NC(=O)Cc2ccc(-c3ccc(Cl)cc3)cc2)cc1SCC(F)(F)F [Compound 1A-63],≥ 50
4,Cc1cc(F)c(NC(=O)Cc2ccc(-c3ccccc3Cl)cc2)cc1SCC(F)(F)F [Compound 1A-68],≥ 50
5,Cc1cc(F)c(N(C)C(=O)Cc2cccc(-c3ccccc3)c2)cc1SCC(F)(F)F [Compound 1B-62],≥ 50
6,Cc1cc(F)c(N(C)C(=O)Cc2ccc(SCC(F)(F)F)cc2)cc1SCC(F)(F)F [Compound 1B-23],≥ 50
7,Cc1cc(F)c(NC(=O)C(F)(F)c2ccc(OC(F)(F)F)cc2)cc1S(=O)(=O)CC(F)(F)F [Compound 1B-88],≥ 50
8,CCN(C(=O)C(C)c1ccc(Cl)cc1)c1cc(SCC(F)(F)F)c(C)cc1F (racemic) [Compound 1A-87],≥ 50
9,Cc1cc(F)c(NC(=O)Cc2ccc(-c3ccc(F)c(F)c3)cc2)cc1SCC(F)(F)F [Compound 1B-19],≥ 50
10,CSc1ccc(CC(=O)N(C)c2cc(SCC(F)(F)F)c(C)cc2Br)cc1 [Compound 1A-74],≥ 50
11,Cc1cc(F)c(NC(=O)Cc2cccc(-c3ccccc3)c2)cc1SCC(F)(F)F [Compound 1B-58],≥ 50
12,Cc1cc(F)c(N(C)C(=O)Cc2ccc(OC(F)F)cc2)cc1S(=O)(=O)CC(F)(F)F [Compound 1B-82],≥ 50
13,Cc1cc(F)c(NC(=S)Cc2ccc(-c3ccccc3)cc2)cc1SCC(F)(F)F [Compound 1B-27],≥ 50
14,Cc1cc(F)c(N(C)C(=O)Cc2cccc(-c3cccc(-c4ccc5c(c4)OCO5)c3)c2)cc1SCC(F)(F)F [Compound 1B-101],≥ 50
15,Cc1cc(F)c(N(C)C(=O)Cc2ccc(OC(F)F)cc2)cc1[S+]([O-])CC(F)(F)F (stereo not drawn) [Compound 1B-83],≥ 50
16,"Cc1cc(F)c(NC(=O)Cc2ccc(OC(F)(F)F)cc2)cc1SCC(F)(F)F [Compound 1A-14, N-(5-(2,2,2-trifluoroethylthio)-2-fluoro-4-methylphenyl)-2-(4-(trifluoromethoxy)phenyl) acetamide]",≥ 50
17,Cc1cc(F)c(NC(=O)C(F)(F)c2ccc(OC(F)(F)F)cc2)cc1SCC(F)(F)F [Compound 1B-86],≥ 50
18,Cc1cc(F)c(NC(=O)Cc2ccc(F)cc2)cc1SCC(F)(F)F [Compound 1A-13],≥ 50
19,Cc1cc(F)c(NC(=O)Cc2ccc(-c3ccc(Cl)c(Cl)c3)cc2)cc1SCC(F)(F)F [Compound 1A-27],≥ 50
20,Cc1cc(Cl)c(N(C)C(=O)Cc2ccc(Cl)cc2)cc1SCC(F)(F)F [Compound 1A-57],≥ 50

row,Structure (SMILES),ovicidal rate of the two-spotted spider mites (mortality) [%]
1,Cc1cc(F)c(N(C)C(=O)Cc2cccc(-c3cccc(OC(F)(F)F)c3)c2)cc1SCC(F)(F)F [Compound 1B-61],≥ 50
2,Cc1cc(F)c(N(C)C(=O)Cc2cccc(-c3cccc(Cl)c3)c2)cc1SCC(F)(F)F [Compound 1B-72],≥ 50
3,Cc1cc(Br)c(NC(=O)Cc2ccc(OC(F)(F)F)cc2)cc1SCC(F)(F)F [Compound 1A-54],≥ 50
4,Cc1cc(F)c(N(C)C(=S)Cc2ccc(OC(F)(F)F)cc2)cc1SCC(F)(F)F [Compound 1B-39],≥ 50
5,Cc1cc(F)c(N(C)C(=O)Cc2ccc(-c3ccc(Cl)c(Cl)c3)cc2)cc1SCC(F)(F)F [Compound 1A-93],≥ 50
6,CCN(C(=O)C(C)c1ccc(Cl)cc1)c1cc(SCC(F)(F)F)c(C)cc1Br (racemic) [Compound 1A-85],≥ 50
7,Cc1cc(F)c(N(C)C(=O)Cc2cccc(-c3cccc(Cl)c3Cl)c2)cc1SCC(F)(F)F [Compound 1B-76],≥ 50
8,Cc1cc(F)c(N(C)C(=O)Cc2ccc(-c3ccc(C#N)cc3)cc2)cc1SCC(F)(F)F [Compound 1B-15],≥ 50
9,Cc1cc(F)c(NC(=O)Cc2ccc(-c3ccc(C#N)cc3)cc2)cc1SCC(F)(F)F [Compound 1B-5],≥ 50
10,Cc1cc(F)c(N(C)C(=O)Cc2cccc(-c3cccc(C(F)(F)F)c3)c2)cc1SCC(F)(F)F [Compound 1B-63],≥ 50
11,Cc1cc(Cl)c(NC(=O)Cc2ccc(OC(F)(F)F)cc2)cc1SCC(F)(F)F [Compound 1A-59],≥ 50
12,CCN(C(=O)Cc1ccc(-c2ccc(Cl)c(Cl)c2)cc1)c1cc(SCC(F)(F)F)c(C)cc1F [Compound 1A-94],≥ 50
13,Cc1cc(F)c(N(C)C(=O)Cc2ccccc2-c2cccc(OC(F)(F)F)c2)cc1SCC(F)(F)F [Compound 1B-50],≥ 50
14,Cc1cc(F)c(NC(=O)Cc2cccc(-c3cccc(OC(F)(F)F)c3)c2)cc1SCC(F)(F)F [Compound 1B-57],≥ 50
15,CCN(C(=O)Cc1ccc(C(F)(F)F)cc1)c1cc(SCC(F)(F)F)c(C)cc1Cl [Compound 1A-83],≥ 50
16,Cc1cc(F)c(NC(=O)Cc2ccc(SC(F)(F)F)cc2)cc1SCC(F)(F)F [Compound 1A-47],≥ 50
17,CCN(C(=O)Cc1ccc(OC(F)(F)F)cc1)c1cc(SCC(F)(F)F)c(C)cc1Cl [Compound 1A-58],≥ 50
18,Cc1cc(Cl)c(N(C)C(=O)Cc2ccc(OC(F)(F)F)cc2)cc1SCC(F)(F)F [Compound 1A-56],≥ 50
19,Cc1cc(F)c(N(C)C(=O)C(F)(F)c2ccc(-c3ccccc3)cc2)cc1SCC(F)(F)F [Compound 1B-41],≥ 50
20,CCCCCc1ccc(CC(=O)Nc2cc(SCC(F)(F)F)c(C)cc2F)cc1 [Compound 1A-71],≥ 50
